From patent US10323007B1, “N2N N4-disubstituted quinazoline-2,4-diamines and uses thereof” (University of South Florida, priority 2016, dated 2019)
Some of these results come from one statement about several compounds together.

Experiments:
[1] = test system: A. baumannii 1646; assay: minimal bactericidal concentration (MBC) assay, strain 1646; type: cell-based, Acinetobacter baumannii; conditions: Table 8 and text
Description: Lead quinazolines 4, 5, 26, 29, 27, and 30 were selected to be further evaluated for antimicrobial effects. The first assay utilized was a minimal bactericidal concentration (MBC) assay, to assess whether leads compounds were bacteriostatic or bactericidal. The six lead agents were screened to identify their MBC90 towards each of the six A. baumannii isolates used in the SAR studies (Table 8), however for simplicity only the representative data for isolate 1646 is detailed below (Table 6). […] Further to this, we were able to obtain complete eradication of bacterial growth for these two compounds at 1 μM for 24 and 5 μM for 25.
MIC and MBC assays were performed in this study as documented by us previously.^17,23,24,25 The A. baumannii strains used are detailed in Table 7.

[2] = test system: A. baumannii 1646 biofilm; assay: biofilm eradication determination assay, strain 1646; type: cell-based, Acinetobacter baumannii; conditions: 90% biofilm eradication, Table 8 and text
Description: These assays were performed as described by us previously,^26,24 as follows. Each of the A. baumannii strains were grown overnight in Mueller Hinton Broth (MHB). The next day these were used to seed fresh MHB to an OD600 of 0.5, with 150 μL then added to the wells of a 96 well plate and grown for 24 hours at 37° C. After 24 hours, the planktonic bacteria were carefully removed and fresh MHB was added with increasing concentrations of lead quinazolines. After incubation at 37° C. for 24 hours, planktonic cells were removed and biofilms were washed three times with phosphate buffered saline (PBS). Biofilms were then resuspended in PBS and plated for cell viability on tryptic soy agar. Biofilm recovery was assessed compared to no drug controls, and determined as percent eradication. This was used to determine MBEC90 values (Minimal Biofilm Eradication Concentration), where the viability of cells within the biofilm was reduced by 90%.

SMILES: CNc1nc(NCc2ccccc2)nc2ccc(Br)cc12 [Compound 4, N^2-Benzyl-6-bromo-N^4-methylquinazoline-2,4-diamine]
- MBC90 1646 [1]: < 1 µM
- MBEC90 1646 [2]: < 4 µM

SMILES: CNc1nc(NCc2ccccc2)nc2ccc(C)cc12 [Compound 5, N^2-Benzyl-N^4,6-dimethylquinazoline-2,4-diamine]
- MBC90 1646 [1]: < 1 µM
- MBEC90 1646 [2]: < 4 µM
